Data taken from paper PMC5618615.

T1: BD-BAK1 (DNA-binding domain fused to the cytoplasmic domain of AtBAK1) (A. thaliana) (UniProt Q94F62)
T1 sequence: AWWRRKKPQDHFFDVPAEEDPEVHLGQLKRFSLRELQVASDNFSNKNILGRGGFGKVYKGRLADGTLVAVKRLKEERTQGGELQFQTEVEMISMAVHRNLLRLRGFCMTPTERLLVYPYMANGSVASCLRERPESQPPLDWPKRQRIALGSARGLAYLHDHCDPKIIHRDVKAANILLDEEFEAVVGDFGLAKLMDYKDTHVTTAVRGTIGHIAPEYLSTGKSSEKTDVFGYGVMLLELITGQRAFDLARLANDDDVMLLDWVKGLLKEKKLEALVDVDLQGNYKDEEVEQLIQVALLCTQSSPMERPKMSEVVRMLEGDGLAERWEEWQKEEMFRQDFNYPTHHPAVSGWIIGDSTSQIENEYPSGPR

B1: FLAG-tagged BAK1 cytoplasmic domain (domain or fragment, UniProt Q94F62 247-615)
chain: T1 sequence

Assays:
[1] = target: T1, BD-BAK1 (DNA-binding domain fused to the cytoplasmic domain of AtBAK1) (A. thaliana); assay: two-hybrid; yeast strain AH109; SlBIR3 cytoplasmic domain in pGADT7 (prey), AtBAK1 or SlBAK1 cytoplasmic domain in pGBKT7 (bait); growth on SD/-Leu-Trp-His-Ade and X-alpha-Gal, 30 °C, 4 days
[2] = target: MBP-SlBIR3 (MBP-tagged SlBIR3 cytoplasmic domain) (tomato (Solanum lycopersicum)); assay: pull-down; MBP fusion immobilised on amylose resin as bait; 3 ug FLAG fusion protein in 120 uL incubation buffer (1 mM NaCl, 20 mM MgCl2, 0.5% Triton X-100, 0.1 M HEPES pH 7.2), 1 h, 4 °C; 5 washes; anti-FLAG Western blot; both purified

Molecule | binding [1] | binding [2]
AD-SlBIR3 (activation domain fused to the cytoplasmic domain of SlBIR3) (tomato (Solanum lycopersicum)) (domain or fragment) | binds | 
B1 |  | binds

No constants are given. Whether binding was seen depends on the method and setting. A result given as binding can be weak or reduced; the word gives no strength. Tags and fused reporters may be left off the sequences shown.
